Test results taken from publication PMC3899080.
These are yes or no findings as the source states them, for the method shown. Binding seen in cells or lysates may run through a third protein. Some binding calls cover weakened binding; strength is not graded here.

The chains behind the UniProt entries cited, without tags or fusion partners.
UniProt Q14247: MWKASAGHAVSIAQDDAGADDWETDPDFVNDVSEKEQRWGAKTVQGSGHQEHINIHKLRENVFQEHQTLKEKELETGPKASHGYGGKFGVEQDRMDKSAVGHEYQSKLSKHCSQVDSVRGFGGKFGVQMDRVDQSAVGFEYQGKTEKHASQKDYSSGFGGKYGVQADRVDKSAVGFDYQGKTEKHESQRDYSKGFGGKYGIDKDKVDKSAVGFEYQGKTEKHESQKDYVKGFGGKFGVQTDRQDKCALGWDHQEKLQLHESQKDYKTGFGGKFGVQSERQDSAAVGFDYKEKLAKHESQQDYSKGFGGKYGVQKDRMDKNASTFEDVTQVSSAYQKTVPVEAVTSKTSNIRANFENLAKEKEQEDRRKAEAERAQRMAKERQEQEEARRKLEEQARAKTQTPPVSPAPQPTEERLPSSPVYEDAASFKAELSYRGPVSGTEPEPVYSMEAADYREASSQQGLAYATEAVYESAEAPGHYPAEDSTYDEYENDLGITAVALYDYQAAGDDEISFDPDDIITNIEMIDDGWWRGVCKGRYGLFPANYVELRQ

Columns and labels:
[1] = biological target: pTyr421-cortactin (human (endogenous in HCT116)) (UniProt Q14247); test: condition: only cells treated with 50 µM curcumin for 15 min; co-IP; as a1, HCT116 cells treated with 50 µM curcumin for 15 min before lysis; IP with anti-pTyr421-CTTN, blot for CTNND1
[2] = biological target: pTyr421-cortactin (human (endogenous in HCT116)) (UniProt Q14247); test: co-IP; HCT116 cells lysed in RIPA buffer, pre-cleared lysates; 5 µg antibody (anti-pTyr421-CTTN or anti-CTTN total, rabbit polyclonal) to 1 mg lysate overnight at 4°C, protein A/G agarose 1 h at 4°C; blot for CTNND1; cells without or with 50 µM curcumin for 15 min (curcumin greatly reduced the co-precipitate with total CTTN)
[3] = biological target: cortactin (total CTTN) (human (endogenous in HCT116)) (UniProt Q14247); test: as above

binding [1]: no binding
binding [2]: binds
binding [3]: binds
B1: p120 catenin (cadherin-associated protein) delta 1 (CTNND1) (protein, UniProt O60716 1-968)
chain: MDDSEVESTASILASVKEQEAQFEKLTRALEEERRHVSAQLERVRVSPQDANPLMANGTLTRRHQNGRFVGDADLERQKFSDLKLNGPQDHSHLLYSTIPRMQEPGQIVETYTEEDPEGAMSVVSVETSDDGTTRRTETTVKKVVKTVTTRTVQPVAMGPDGLPVDASSVSNNYIQTLGRDFRKNGNGGPGPYVGQAGTATLPRNFHYPPDGYSRHYEDGYPGGSDNYGSLSRVTRIEERYRPSMEGYRAPSRQDVYGPQPQVRVGGSSVDLHRFHPEPYGLEDDQRSMGYDDLDYGMMSDYGTARRTGTPSDPRRRLRSYEDMIGEEVPSDQYYWAPLAQHERGSLASLDSLRKGGPPPPNWRQPELPEVIAMLGFRLDAVKSNAAAYLQHLCYRNDKVKTDVRKLKGIPVLVGLLDHPKKEVHLGACGALKNISFGRDQDNKIAIKNCDGVPALVRLLRKARDMDLTEVITGTLWNLSSHDSIKMEIVDHALHALTDEVIIPHSGWEREPNEDCKPRHIEWESVLTNTAGCLRNVSSERSEARRKLRECDGLVDALIFIVQAEIGQKDSDSKLVENCVCLLRNLSYQVHREIPQAERYQEAAPNVANNTGPHAASCFGAKKGKDEWFSRGKKPIEDPANDTVDFPKRTSPARGYELLFQPEVVRIYISLLKESKTPAILEASAGAIQNLCAGRWTYGRYIRSALRQEKALSAIADLLTNEHERVVKAASGALRNLAVDARNKELIGKHAIPNLVKNLPGGQQNSSWNFSEDTVISILNTINEVIAENLEAAKKLRETQGIEKLVLINKSGNRSEKEVRAAALVLQTIWGYKELRKPLEKEGWKKSDFQVNLNNASRSQSSHSYDDSTLPLIDRNQKSDKKPDREEIQMSNMGSNTKSLDNNYSTPNERGDHNRTLDRSGDLGDMEPLKGTTPLMQDEGQESLEEELDVLVLDDEGGQVSYPSMQKI
